According to paper PMC3900477:
Results are given in words; binding and its absence hold for the method and conditions named. Binding calls can cover weak binding; strength is not graded here. For some of these results: Where a sequence is shown, tags or fusion partners need not be part of it. For some of these results: Binding seen in cells or lysates may run through a third protein.

Amino acid sequences for entries named in this document (tags omitted). A change or cut given only in a name is not applied to a line headed by its entry.
UniProt Q9S7M2: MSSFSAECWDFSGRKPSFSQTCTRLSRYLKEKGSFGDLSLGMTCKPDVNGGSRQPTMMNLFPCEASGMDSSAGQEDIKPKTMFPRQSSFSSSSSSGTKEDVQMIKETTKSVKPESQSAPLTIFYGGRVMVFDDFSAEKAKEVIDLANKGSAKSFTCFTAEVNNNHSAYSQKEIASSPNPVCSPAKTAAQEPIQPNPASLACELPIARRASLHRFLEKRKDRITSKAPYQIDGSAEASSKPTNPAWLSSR
UniProt Q9C5K8: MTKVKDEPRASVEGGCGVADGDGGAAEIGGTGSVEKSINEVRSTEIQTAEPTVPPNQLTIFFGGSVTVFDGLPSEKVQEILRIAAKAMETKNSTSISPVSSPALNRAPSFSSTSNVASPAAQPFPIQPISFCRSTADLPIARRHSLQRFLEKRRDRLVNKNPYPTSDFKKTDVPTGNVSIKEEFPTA
UniProt O23487: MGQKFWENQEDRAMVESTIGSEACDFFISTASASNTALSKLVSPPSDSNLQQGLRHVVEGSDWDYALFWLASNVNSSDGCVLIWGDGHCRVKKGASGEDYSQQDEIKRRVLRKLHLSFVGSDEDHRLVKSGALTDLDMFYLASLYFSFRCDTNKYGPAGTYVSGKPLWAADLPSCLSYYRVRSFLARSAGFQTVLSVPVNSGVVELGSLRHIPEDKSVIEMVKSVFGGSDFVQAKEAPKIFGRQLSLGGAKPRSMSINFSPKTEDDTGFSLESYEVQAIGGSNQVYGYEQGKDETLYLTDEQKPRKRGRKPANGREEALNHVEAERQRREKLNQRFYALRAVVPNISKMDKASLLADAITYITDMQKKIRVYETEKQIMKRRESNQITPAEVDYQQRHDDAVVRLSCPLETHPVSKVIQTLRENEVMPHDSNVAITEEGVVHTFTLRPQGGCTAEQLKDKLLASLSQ
UniProt Q9LNJ5: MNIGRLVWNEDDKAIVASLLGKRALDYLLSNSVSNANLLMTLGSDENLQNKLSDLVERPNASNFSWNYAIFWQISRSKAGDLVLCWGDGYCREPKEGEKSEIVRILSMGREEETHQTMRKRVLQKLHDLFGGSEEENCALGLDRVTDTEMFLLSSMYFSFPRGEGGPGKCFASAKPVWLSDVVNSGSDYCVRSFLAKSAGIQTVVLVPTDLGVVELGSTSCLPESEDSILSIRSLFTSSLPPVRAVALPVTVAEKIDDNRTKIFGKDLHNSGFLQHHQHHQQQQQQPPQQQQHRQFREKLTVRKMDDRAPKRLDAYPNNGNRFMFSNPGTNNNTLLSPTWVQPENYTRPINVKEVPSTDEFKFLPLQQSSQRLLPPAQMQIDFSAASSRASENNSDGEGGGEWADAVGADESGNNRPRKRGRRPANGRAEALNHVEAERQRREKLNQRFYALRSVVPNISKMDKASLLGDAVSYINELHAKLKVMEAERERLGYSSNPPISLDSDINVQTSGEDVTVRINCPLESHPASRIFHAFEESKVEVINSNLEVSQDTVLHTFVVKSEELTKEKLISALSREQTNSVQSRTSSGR
UniProt Q9ZPY8: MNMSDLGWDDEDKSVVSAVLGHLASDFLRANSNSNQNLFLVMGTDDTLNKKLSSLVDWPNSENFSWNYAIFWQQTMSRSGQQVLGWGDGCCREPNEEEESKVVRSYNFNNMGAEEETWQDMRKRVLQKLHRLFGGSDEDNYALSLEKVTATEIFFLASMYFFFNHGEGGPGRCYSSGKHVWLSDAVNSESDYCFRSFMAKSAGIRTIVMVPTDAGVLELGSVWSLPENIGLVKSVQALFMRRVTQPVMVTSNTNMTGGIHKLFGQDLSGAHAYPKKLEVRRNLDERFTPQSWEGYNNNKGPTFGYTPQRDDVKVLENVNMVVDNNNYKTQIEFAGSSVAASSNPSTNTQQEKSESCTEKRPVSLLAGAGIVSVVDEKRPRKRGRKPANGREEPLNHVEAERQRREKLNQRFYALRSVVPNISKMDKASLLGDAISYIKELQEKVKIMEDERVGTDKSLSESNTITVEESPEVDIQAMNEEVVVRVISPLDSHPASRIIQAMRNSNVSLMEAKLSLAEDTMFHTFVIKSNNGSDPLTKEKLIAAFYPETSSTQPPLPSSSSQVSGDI

Assays:
[1] = target: JAZ2-BD (Arabidopsis thaliana) (UniProt Q9S7M2); assay: two-hybrid; yeast AH109 co-transformed with JAZ-BD (pGBKT7) and bHLH-AD (pGADT7); growth for 3 days at 30°C on medium lacking Ade, His, Leu and Trp
[2] = target: T1, JAZ4-BD (Arabidopsis thaliana) (UniProt Q58G47); assay: as above
T1 sequence: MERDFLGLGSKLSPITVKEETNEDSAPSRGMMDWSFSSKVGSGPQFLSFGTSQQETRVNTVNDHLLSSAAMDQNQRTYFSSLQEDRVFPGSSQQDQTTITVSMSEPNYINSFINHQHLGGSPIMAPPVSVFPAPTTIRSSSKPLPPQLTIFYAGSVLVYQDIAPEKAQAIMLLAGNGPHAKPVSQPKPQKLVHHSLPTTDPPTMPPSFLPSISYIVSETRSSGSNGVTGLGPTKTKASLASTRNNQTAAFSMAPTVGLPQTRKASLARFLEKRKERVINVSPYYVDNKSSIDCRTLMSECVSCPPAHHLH

[3] = target: T2, JAZ11-BD (Arabidopsis thaliana) (UniProt Q9M246); assay: as above
T2 sequence: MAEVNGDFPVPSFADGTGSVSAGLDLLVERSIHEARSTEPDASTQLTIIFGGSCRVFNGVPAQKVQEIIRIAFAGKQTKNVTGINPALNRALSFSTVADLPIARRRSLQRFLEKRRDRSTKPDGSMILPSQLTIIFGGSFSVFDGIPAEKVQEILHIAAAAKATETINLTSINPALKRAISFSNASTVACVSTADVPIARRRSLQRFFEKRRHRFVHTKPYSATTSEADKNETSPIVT

[4] = target: T3, JAZ9-BD (Arabidopsis thaliana) (UniProt Q8W4J8); assay: as above
T3 sequence: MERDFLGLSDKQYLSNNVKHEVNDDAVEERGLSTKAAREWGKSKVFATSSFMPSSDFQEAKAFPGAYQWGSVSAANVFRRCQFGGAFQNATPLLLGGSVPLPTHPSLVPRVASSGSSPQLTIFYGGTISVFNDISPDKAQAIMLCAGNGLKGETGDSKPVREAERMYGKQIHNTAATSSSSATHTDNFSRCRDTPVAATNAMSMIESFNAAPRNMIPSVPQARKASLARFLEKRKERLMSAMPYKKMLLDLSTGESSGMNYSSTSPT

[5] = target: JAZ12-BD (Arabidopsis thaliana) (UniProt Q9C5K8); assay: as above
[6] = target: T4, JAZ7-BD (Arabidopsis thaliana) (UniProt O64687); assay: as above
T4 sequence: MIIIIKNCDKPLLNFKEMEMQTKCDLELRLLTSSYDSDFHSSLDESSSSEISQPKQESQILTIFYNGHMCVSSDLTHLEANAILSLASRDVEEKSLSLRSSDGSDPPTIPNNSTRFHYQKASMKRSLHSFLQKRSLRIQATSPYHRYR

[7] = target: T5, MBP-JAZ4 (Arabidopsis thaliana) (UniProt Q58G47); assay: pull-down; recombinant MBP fusion (MBP-JAZ or MBP-bHLH) from E. coli as bait; bHLH-HA in extracts of 10-day-old transgenic Arabidopsis seedlings (50 mM Tris-HCl pH 7.4, 80 mM NaCl, 10% glycerol, 0.1% Tween-20, 1 mM DTT, MG132); anti-HA immunoblot; only the target purified
T5 sequence: T1 sequence

[8] = target: MBP-JAZ2 (Arabidopsis thaliana) (UniProt Q9S7M2); assay: as above
[9] = target: T6, MBP-JAZ11 (Arabidopsis thaliana) (UniProt Q9M246); assay: as above
T6 sequence: T2 sequence

[10] = target: T7, MBP-JAZ9 (Arabidopsis thaliana) (UniProt Q8W4J8); assay: as above
T7 sequence: T3 sequence

[11] = target: T8, JAZ3-BD (Arabidopsis thaliana) (UniProt Q9LVI4); assay: two-hybrid; yeast AH109 co-transformed with JAZ-BD (pGBKT7) and bHLH-AD (pGADT7); growth for 3 days at 30°C on medium lacking Ade, His, Leu and Trp
T8 sequence: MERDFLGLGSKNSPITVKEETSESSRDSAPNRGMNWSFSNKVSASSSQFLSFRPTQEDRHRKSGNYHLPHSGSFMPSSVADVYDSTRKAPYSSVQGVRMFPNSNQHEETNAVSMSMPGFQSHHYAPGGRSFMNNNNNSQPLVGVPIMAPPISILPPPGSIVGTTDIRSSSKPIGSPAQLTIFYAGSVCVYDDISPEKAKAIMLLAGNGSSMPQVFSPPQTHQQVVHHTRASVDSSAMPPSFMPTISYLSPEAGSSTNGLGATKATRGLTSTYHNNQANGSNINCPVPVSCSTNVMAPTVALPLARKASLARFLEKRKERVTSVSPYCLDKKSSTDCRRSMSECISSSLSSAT

[12] = target: MBP-bHLH003 (Arabidopsis thaliana) (UniProt O23487); assay: pull-down; recombinant MBP fusion (MBP-JAZ or MBP-bHLH) from E. coli as bait; bHLH-HA in extracts of 10-day-old transgenic Arabidopsis seedlings (50 mM Tris-HCl pH 7.4, 80 mM NaCl, 10% glycerol, 0.1% Tween-20, 1 mM DTT, MG132); anti-HA immunoblot; only the target purified
[13] = target: T9, MBP-JAZ3 (Arabidopsis thaliana) (UniProt Q9LVI4); assay: as above
T9 sequence: T8 sequence

[14] = target: T10, MBP-JAZ7 (Arabidopsis thaliana) (UniProt O64687); assay: as above
T10 sequence: T4 sequence

[15] = target: MBP-bHLH013 (Arabidopsis thaliana) (UniProt Q9LNJ5); assay: as above
[16] = target: T11, JAZ10-BD (Arabidopsis thaliana) (UniProt Q93ZM9); assay: two-hybrid; yeast AH109 co-transformed with JAZ-BD (pGBKT7) and bHLH-AD (pGADT7); growth for 3 days at 30°C on medium lacking Ade, His, Leu and Trp
T11 sequence: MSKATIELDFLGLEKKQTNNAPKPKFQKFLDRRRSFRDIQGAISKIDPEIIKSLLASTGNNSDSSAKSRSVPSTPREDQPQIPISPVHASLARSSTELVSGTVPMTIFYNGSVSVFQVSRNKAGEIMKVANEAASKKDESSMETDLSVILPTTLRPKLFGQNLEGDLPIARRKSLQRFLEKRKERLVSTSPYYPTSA

[17] = target: T12, JAZ8-BD (Arabidopsis thaliana) (UniProt Q8LBM2); assay: as above
T12 sequence: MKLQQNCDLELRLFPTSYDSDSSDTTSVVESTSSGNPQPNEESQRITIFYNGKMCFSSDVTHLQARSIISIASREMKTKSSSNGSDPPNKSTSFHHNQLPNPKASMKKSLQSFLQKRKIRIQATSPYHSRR

[18] = target: T13, MBP-JAZ8 (Arabidopsis thaliana) (UniProt Q8LBM2); assay: pull-down; recombinant MBP fusion (MBP-JAZ or MBP-bHLH) from E. coli as bait; bHLH-HA in extracts of 10-day-old transgenic Arabidopsis seedlings (50 mM Tris-HCl pH 7.4, 80 mM NaCl, 10% glycerol, 0.1% Tween-20, 1 mM DTT, MG132); anti-HA immunoblot; only the target purified
T13 sequence: T12 sequence

[19] = target: MBP-bHLH017 (Arabidopsis thaliana) (UniProt Q9ZPY8); assay: as above
[20] = target: MBP-JAZ12 (Arabidopsis thaliana) (UniProt Q9C5K8); assay: as above
[21] = target: T14, MBP-JAZ10 (Arabidopsis thaliana) (UniProt Q93ZM9); assay: as above
T14 sequence: T11 sequence

Substance	binding [1]	binding [2]	binding [3]	binding [4]	binding [5]	binding [6]	binding [7]	binding [8]	binding [9]	binding [10]	binding [11]	binding [12]	binding [13]	binding [14]	binding [15]	further results
bHLH003-HA (from UniProt O23487)							binds	binds	binds	binds						
bHLH013-AD (from UniProt Q9LNJ5)	binds		binds	binds		no binding					binds					
bHLH017-HA (from UniProt Q9ZPY8)							binds	binds	binds	binds		binds	binds	binds	binds	binding [18]: binds; binding [19]: binds; binding [20]: binds; binding [21]: binds

Second part, led by results:

binding [1]	binding [2]	binding [3]	binding [4]	binding [5]	binding [6]	binding [7]	binding [8]	binding [9]	binding [10]	binding [11]	binding [12]	binding [13]	binding [14]	binding [15]	Substance	further results
binds	binds	binds	binds	no binding	no binding										bHLH003-AD (from UniProt O23487)	
							binds	binds	binds		binds	binds	no binding	binds	bHLH013-HA (from UniProt Q9LNJ5)	
binds	binds weakly	binds	binds	binds	binds					binds					bHLH017-AD (from UniProt Q9ZPY8)	binding [16]: binds; binding [17]: binds
